{
  "source": "patent US5175146A",
  "about": "“Synthetic calcitonin peptides” (Vical, Inc., priority 1990, dated 1992)",
  "key": {"[1]": {"conditions": "cited from earlier work"}, "[2]": {"test_system": "Male rats (Sprague Dawley)", "test": "Hypocalcemic activity: serum Ca++ decrease in rats after subcutaneous injection", "format": "in vivo", "conditions": "1 hr, rat serum", "description": "Calcitonins lower the blood calcium of immature rats by inhibiting bone resorption. Their potency can be assessed by determining the micrograms of peptide required to reduce the serum calcium by ten percent. The results of in vivo tests of the biological activities of synthetic calcitonin peptides of the invention are shown in Example 37.\nThis activity was measured as follows: Male rats (Sprague Dawley) weighing approximately 100 grams were fasted overnight. Peptides according to the invention, comprising various potency-enhancing modifications, were dissolved in pH 7.4 PBS buffer at a concentration range of 0.001 microgram to about 100 microgram per ml. The rats were anesthetized with Metophane10, weighed and injected subcutaneously with the peptide solutions in a dose of from 0.001 to about 100 microgram per kilogram of body weight. […] Calcium-lowering potencies of the synthetic peptides can be calculated in International units (IU) per mg as described by the method of M. Kumar et al., J. Endocrinology 33:469-475 (1964). According to this test, 10 IU is defined as the amount of peptide necessary for lowering Ca++ concentration by 10% in 100 gram rats one hour after subcutaneous injection. Serum Ca++ levels in the rat after subcutaneous injection of various peptides are summarized below: […]"}},
  "note": "Part of at least one peptide drawing is inferred or uncertain, most often the ends.",
  "data": [
    {"smiles": "CC[C@H](C)[C@H](NC(=O)[C@H](C)NC(=O)[C@@H](NC(=O)[C@H](CCC(N)=O)NC(=O)[C@@H]1CCCN1C(=O)[C@H](Cc1ccccc1)NC(=O)[C@@H](NC(=O)[C@H](Cc1c[nH]cn1)NC(=O)[C@H](Cc1ccccc1)NC(=O)[C@H](CCCCN)NC(=O)[C@H](CC(N)=O)NC(=O)[C@H](Cc1ccccc1)NC(=O)[C@H](CC(=O)O)NC(=O)[C@H](CCC(N)=O)NC(=O)[C@@H](NC(=O)[C@H](Cc1ccc(O)cc1)NC(=O)[C@@H](NC(=O)CNC(=O)[C@H](CC(C)C)NC(=O)[C@H](CCSC)NC(=O)[C@@H]1CSSC[C@H](N)C(=O)NCC(=O)N[C@@H](CC(N)=O)C(=O)N[C@@H](CC(C)C)C(=O)N[C@@H](CO)C(=O)N[C@@H]([C@@H](C)O)C(=O)N1)[C@@H](C)O)[C@@H](C)O)[C@@H](C)O)[C@@H](C)O)C(=O)NCC(=O)N[C@H](C(=O)NCC(=O)N[C@@H](C)C(=O)N1CCC[C@H]1C(N)=O)C(C)C", "note": "[Human CT, Human calcitonin, reference compound]", "values": [
      {"measurement": "time the calcitonin remains potent after administration", "setting": "[1]", "value": "about two"},
      {"measurement": "Ca++ Decrease", "setting": "[2]; dose 1 ug/kg s.c.", "value": 0.02, "unit": "mg/dL"},
      {"measurement": "Ca++ Decrease", "setting": "[2]; dose 3.2 ug/kg s.c.", "value": 0.54, "unit": "mg/dL"},
      {"measurement": "Ca++ Decrease", "setting": "[2]; dose 10 ug/kg s.c.", "value": 1.59, "unit": "mg/dL"}
    ]}
  ]
}
